Results are given in words; binding and its absence hold for the method and conditions named. In cells and extracts the contact can be indirect. Some results given as binding are weak or reduced against the parent protein; the word gives no strength. Each block holds one substance with its values, some of them ahead of it.
How the values were obtained:
[1] = biological target: T1, TRP ion channel (transient receptor potential protein) (Drosophila) (UniProt P19334); assay: GST fusion pull-down from cell extracts, immunoblot
T1 sequence (looked up): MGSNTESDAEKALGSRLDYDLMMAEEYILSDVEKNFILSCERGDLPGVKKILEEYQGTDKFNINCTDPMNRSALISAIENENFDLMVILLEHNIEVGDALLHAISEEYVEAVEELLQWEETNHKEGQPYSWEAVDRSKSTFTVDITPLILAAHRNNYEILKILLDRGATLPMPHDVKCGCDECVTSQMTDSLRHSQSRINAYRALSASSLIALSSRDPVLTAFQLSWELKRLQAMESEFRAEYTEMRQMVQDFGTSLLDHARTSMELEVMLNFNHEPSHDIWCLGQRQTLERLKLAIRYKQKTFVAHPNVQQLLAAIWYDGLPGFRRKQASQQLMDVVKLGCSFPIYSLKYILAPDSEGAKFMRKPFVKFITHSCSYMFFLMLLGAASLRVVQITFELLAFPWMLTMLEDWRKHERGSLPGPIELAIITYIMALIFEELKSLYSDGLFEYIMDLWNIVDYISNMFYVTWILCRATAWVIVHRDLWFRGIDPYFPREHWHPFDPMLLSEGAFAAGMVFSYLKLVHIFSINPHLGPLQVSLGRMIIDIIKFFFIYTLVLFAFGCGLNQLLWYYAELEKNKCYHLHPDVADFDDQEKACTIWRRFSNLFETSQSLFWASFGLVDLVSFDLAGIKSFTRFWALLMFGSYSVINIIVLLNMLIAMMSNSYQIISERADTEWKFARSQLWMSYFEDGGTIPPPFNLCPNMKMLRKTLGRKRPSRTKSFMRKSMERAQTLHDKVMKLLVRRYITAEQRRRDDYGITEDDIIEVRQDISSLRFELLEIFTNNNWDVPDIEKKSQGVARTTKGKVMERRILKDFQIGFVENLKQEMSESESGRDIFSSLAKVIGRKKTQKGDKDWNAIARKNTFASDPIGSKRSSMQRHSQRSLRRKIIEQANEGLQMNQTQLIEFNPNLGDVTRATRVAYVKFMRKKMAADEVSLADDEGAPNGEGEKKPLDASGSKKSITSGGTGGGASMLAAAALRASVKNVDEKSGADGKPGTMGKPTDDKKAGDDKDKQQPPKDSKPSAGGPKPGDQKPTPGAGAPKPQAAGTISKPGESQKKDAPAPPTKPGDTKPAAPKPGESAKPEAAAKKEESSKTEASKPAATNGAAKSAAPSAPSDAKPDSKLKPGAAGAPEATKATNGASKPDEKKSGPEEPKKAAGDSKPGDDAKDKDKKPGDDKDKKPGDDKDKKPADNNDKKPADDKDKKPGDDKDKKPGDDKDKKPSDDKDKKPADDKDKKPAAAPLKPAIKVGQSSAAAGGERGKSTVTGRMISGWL

[2] = biological target: T2, eye-PKC (photoreceptor-specific protein kinase C) (Drosophila) (UniProt P13677); assay: as above
T2 sequence (looked up): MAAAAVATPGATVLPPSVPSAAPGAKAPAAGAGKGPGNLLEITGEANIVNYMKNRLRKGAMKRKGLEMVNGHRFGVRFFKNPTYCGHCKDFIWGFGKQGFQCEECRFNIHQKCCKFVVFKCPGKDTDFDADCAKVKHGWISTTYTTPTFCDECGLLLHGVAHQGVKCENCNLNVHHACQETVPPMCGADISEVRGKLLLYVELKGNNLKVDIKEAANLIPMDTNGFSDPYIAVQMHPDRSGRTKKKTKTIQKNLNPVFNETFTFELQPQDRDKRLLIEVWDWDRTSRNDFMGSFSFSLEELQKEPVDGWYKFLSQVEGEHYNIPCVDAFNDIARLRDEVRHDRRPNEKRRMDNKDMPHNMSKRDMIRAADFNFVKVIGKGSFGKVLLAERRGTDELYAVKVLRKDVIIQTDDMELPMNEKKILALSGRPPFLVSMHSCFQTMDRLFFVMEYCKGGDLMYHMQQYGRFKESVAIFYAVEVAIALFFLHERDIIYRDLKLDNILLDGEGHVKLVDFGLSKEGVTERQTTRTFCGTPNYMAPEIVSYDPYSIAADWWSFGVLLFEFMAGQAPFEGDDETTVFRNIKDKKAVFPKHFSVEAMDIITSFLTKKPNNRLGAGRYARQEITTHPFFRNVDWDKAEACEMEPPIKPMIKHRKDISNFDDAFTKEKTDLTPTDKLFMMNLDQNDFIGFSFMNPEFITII

[3] = biological target: T1, TRP ion channel (transient receptor potential protein) (Drosophila); assay: GST-PDZ fusion pull-down, immunoblot
[4] = biological target: T1, TRP ion channel (transient receptor potential protein) (Drosophila); assay: GST-PDZ fusion pull-down from whole retinal extracts, immunoblot
[5] = biological target: T1, TRP ion channel (transient receptor potential protein) (Drosophila); assay: co-immunoprecipitation with anti-INAD antibody, immunoblot
[6] = biological target: T2, eye-PKC (photoreceptor-specific protein kinase C) (Drosophila); assay: as above
[7] = biological target: T2, eye-PKC (photoreceptor-specific protein kinase C) (Drosophila); assay: co-immunoprecipitation with anti-INAD antibody from trp and norpA mutant fly head membranes
[8] = biological target: T1, TRP ion channel (transient receptor potential protein) (Drosophila); assay: co-immunoprecipitation with anti-INAD antibody from norpA and inaC mutant fly head membranes
[9] = biological target: T1, TRP ion channel (transient receptor potential protein) (Drosophila); assay: co-immunoprecipitation with anti-INAD antibody from fly head membranes (100 ug), SDS-PAGE and immunoblot
[10] = biological target: T2, eye-PKC (photoreceptor-specific protein kinase C) (Drosophila); assay: as above

binding [1]: binds | binding [2]: binds
Substance: Full length GST-INAD fusion protein (N-GST-INAD-C) (from UniProt Q24008 1-674)

binding [3]: binds | binding [4]: binds
Substance: GST fusion of the third PDZ domain of INAD (N-GST-PDZ 3-C) (from UniProt Q24008 364-448)

binding [5]: binds | binding [6]: binds | binding [7]: binds | binding [8]: binds | binding [9]: binds | binding [10]: binds
Substance: INAD protein (transducisome protein, fly) (from UniProt Q24008 1-674)
